PubChem BioAssay AID1259300, Sanger Institute | 2017

Aim: 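Which knock-downs harm HCT15 alone or synergise with the drugs BYL719, cetuximab or trametinib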 (primary screen)
Cells: HCT15 colorectal cancer cells
Knock-down reagent: siRNA pool against human genes
Conditions: anchor drug or DMSO vehicle added 24 h after seeding: BYL719 1 µM, cetuximab 5 µg/ml, trametinib 10 nM; drug doses chosen to barely affect viability alone
Measurement: 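Replicate-mean viability relative to non-targeting pool control with robust z-score for knock-down without drug; per-drug synergy scores for BYL719 (1 µM), cetuximab (5 µg/ml), trametinib (10 nM)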
Direction: viability z-score, siRNA alone: higher = more viable cells after knock-down; viability vs non-targeting, siRNA alone: higher = more viable cells; synergy score with BYL719 and synergy score with cetuximab and synergy score with trametinib: higher = stronger synergy of knock-down with drug
Active means: 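a knock-down without drug that drives the robust viability z-score under -3 is active, i.e. essential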
Meaning of the calls: active = essential: knock-down alone lowers viability (z below -3); inactive = no strong viability loss with knock-down alone
Here is an unselected part of 794 deposited reagents. Over the whole deposit, 18 (2.3%) got an active call. 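Calls rest on knock-down alone, not drug synergy; depositor treated synergy scores above 0.15 as synergistic; drug doses alone had little viability effect.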 No viability above 1 is reported: the scale is capped. The record does not give: the amount of reagent, the time to read-out.

no.	gene	viability z-score, siRNA alone	viability vs non-targeting, siRNA alone	synergy score with BYL719	synergy score with cetuximab	synergy score with trametinib	Outcome
1	PIK3C2B	0.625	1	0.0173	0.0745	-0.0216	inactive
2	PRKAB1	0.396	0.983	0.121	0.0605	0.00373	inactive
3	ACVR1B	0.356	0.98	0.00052	0.0177	-0.0585	inactive
4	CLK1	-0.387	0.926	0.0822	-0.0736	-0.0617	inactive
5	CHKB	-0.73	0.901	0.0971	-0.0925	-0.0544	inactive
6	MOK	-0.677	0.905	0.0582	-0.0947	-0.183	inactive
7	PIP5KL1	0.191	0.968	0.0694	0.0461	-0.0908	inactive
8	DDR2	0.0497	0.958	0.0303	0.00124	-0.0672	inactive
9	PAK4	0.325	0.978	0.0436	0.0627	-0.0872	inactive
10	HUNK	-1.18	0.868	0.0638	-0.132	-0.0214	inactive
11	EFNB3	-1.15	0.871	0.139	-0.0447	0.179	inactive
12	STYK1	-0.283	0.934	0.168	-0.00542	0.112	inactive
13	MAPK6	0.625	1	0.319	0.132	0.092	inactive
14	PAPSS2	0.625	1	0.0803	0.135	0.0209	inactive
15	MARK3	0.625	1	0.0776	0.0146	-0.0984	inactive
16	GOLGA5	0.222	0.971	0.0642	-0.00769	-0.0271	inactive
17	RPS6KB2	-0.848	0.893	0.118	-0.0438	-0.195	inactive
18	CRKL	0.25	0.973	0.105	-0.0225	0.0605	inactive
19	RIPK4	0.385	0.983	-0.063	-0.0174	-0.114	inactive
20	PHKA1	-0.297	0.933	0.137	-0.0358	-0.159	inactive
21	STK11	-0.749	0.9	0.229	0.0621	-0.115	inactive
22	TAF1L	-1.41	0.852	0.0314	-0.148	-0.117	inactive
23	EPHB3	-1.27	0.862	0.0172	-0.0157	-0.223	inactive
24	PNKP	0.625	1	0.208	0.0628	-0.0984	inactive
25	PFKFB4	0.625	1	0.177	0.0717	0.0471	inactive
26	ARAF	0.179	0.968	-0.0155	-0.0324	-0.0678	inactive
27	PIP4K2B	0.512	0.992	0.26	-0.00816	-0.0684	inactive
28	MAPK3	-0.148	0.944	0.0896	-0.0444	-0.107	inactive
29	DMPK	0.292	0.976	0.0866	-0.0242	0.0693	inactive
30	PIK3R3	0.625	1	-0.0492	0	-0.0984	inactive
31	MYLK2	-1.62	0.837	0.184	-0.133	0.0121	inactive
32	NRBP2	-0.118	0.946	0.11	-0.0227	0.0403	inactive
33	CALM3	0.441	0.987	0.172	0.127	0.0519	inactive
34	SIK2	-0.339	0.93	0.0355	-0.00956	-0.105	inactive
35	JAK3	0.625	1	0.0656	0	-0.0984	inactive
36	PANK3	0.625	1	0.1	0.0421	-0.0984	inactive
37	PAK6	-0.242	0.937	0.206	-0.0434	0.0169	inactive
38	ABL1	0.625	1	0.142	0.107	0.0163	inactive
39	RYK	0.625	1	0.0394	0	-0.0984	inactive
40	SGK2	0.625	1	0.195	0	-0.0741	inactive

3 of these entries in another layout:
{"gene":"EPHB3","viability z-score, siRNA alone":-1.27,"viability vs non-targeting, siRNA alone":0.862,"synergy score with BYL719":0.0172,"synergy score with cetuximab":-0.0157,"synergy score with trametinib":-0.223,"Outcome":"inactive"}
{"gene":"PNKP","viability z-score, siRNA alone":0.625,"viability vs non-targeting, siRNA alone":1,"synergy score with BYL719":0.208,"synergy score with cetuximab":0.0628,"synergy score with trametinib":-0.0984,"Outcome":"inactive"}
{"gene":"PFKFB4","viability z-score, siRNA alone":0.625,"viability vs non-targeting, siRNA alone":1,"synergy score with BYL719":0.177,"synergy score with cetuximab":0.0717,"synergy score with trametinib":0.0471,"Outcome":"inactive"}

The listing continues.
no.	gene	viability z-score, siRNA alone	viability vs non-targeting, siRNA alone	synergy score with BYL719	synergy score with cetuximab	synergy score with trametinib	Outcome
41	ALPK2	0.44	0.987	0.169	0.0255	-0.11	inactive
42	TP53	-0.158	0.943	0.203	0.112	0.0217	inactive
43	PANK1	0.405	0.984	0.0971	0.0783	-0.0563	inactive
44	ANKK1	0.195	0.969	0.207	0.0385	-0.127	inactive
45	PKM	-0.119	0.946	0.0852	0.0918	-0.0827	inactive
46	MAP2K6	0.197	0.969	0.293	0.0497	0.086	inactive
47	CSNK1G2	-0.325	0.931	0.135	-0.0509	-0.0417	inactive
48	KDR	0.625	1	0.188	0.0757	-0.0534	inactive
49	MAP2K2	0.625	1	0.358	0.0502	-0.0984	inactive
50	RIPK3	0.625	1	0.0574	0	0.0431	inactive
51	IGF2R	0.625	1	-0.016	0	0.039	inactive
52	STAG2	0.0828	0.961	-0.121	-0.0394	-0.099	inactive
53	IP6K3	0.625	1	0.223	0.169	0.149	inactive
54	GRK6	-2.15	0.798	0.032	-0.202	-0.196	inactive
55	ITPKC	0.466	0.988	0.273	0.0534	0.155	inactive
56	PCK2	0.0244	0.956	0.116	-0.0106	-0.091	inactive
57	BCOR	-0.117	0.946	0.0913	0.0672	-0.0815	inactive
58	DGUOK	0.29	0.976	0.411	0.0718	0.0427	inactive
59	CSNK1D	0.625	1	0.245	0.101	0.00835	inactive
60	TBCK	-1.12	0.873	-0.016	-0.0584	-0.156	inactive
61	ASPM	0.625	1	0.147	0.0928	0.277	inactive
62	CDK6	0.625	1	0.232	0.172	0.131	inactive
63	PGK1	-0.769	0.899	0.153	0.0463	0.107	inactive
